Laboratory results as given in publication PMC11873677.
Results are given in words; binding and its absence hold for the method and conditions named. For some assays here: Binding can be weak; no strength is given. For some assays here: Sequences can lack the tags named with a protein. For some assays here: Binding seen in cells or lysates may run through a third protein. One block for each binder: values may come before it.

Columns and labels:
[1] = biological target: REM34 (REproductive Meristem 34), bait of the Y2H matrix screening (Arabidopsis thaliana); test: two-hybrid; Y2H matrix screening; REM34 and REM35 in bait vector pDEST32 against a set of inflorescence transcription factors in prey vector pDEST22; performed as in Herrera-Ubaldo et al. (2023)
[2] = biological target: REM35 (REproductive Meristem 35), bait of the Y2H matrix screening (Arabidopsis thaliana); test: as above
[3] = biological target: REM35, split-YFP fusion for BiFC (Arabidopsis thaliana); test: split reporter; BiFC; pYFPN43 and pYFPC43 vectors; Agrobacterium with p19 infiltrated into tobacco leaves; abaxial surfaces imaged three days after inoculation
[4] = biological target: REM34, GAL4 yeast two-hybrid fusion (pGBKT7) (Arabidopsis thaliana); test: yeast three-hybrid; REM35 in pTFT in Y187, mated with AH109 carrying pGADT7 and pGBKT7 vectors; medium lacking Leu, Trp, Ade and His with increasing 3-aminotriazole; 5 days at 28°C
[5] = biological target: REM35 expressed from the pTFT vector (third protein of the yeast three-hybrid) (Arabidopsis thaliana); test: as above

binding [1]: no binding
binding [2]: binds
B1: ARF19 (Auxin Response Factor 19), prey of the Y2H matrix screening (protein, UniProt Q8RYC8 1-1086)
chain: MKAPSNGFLPSSNEGEKKPINSQLWHACAGPLVSLPPVGSLVVYFPQGHSEQVAASMQKQTDFIPNYPNLPSKLICLLHSVTLHADTETDEVYAQMTLQPVNKYDREALLASDMGLKLNRQPTEFFCKTLTASDTSTHGGFSVPRRAAEKIFPPLDFSMQPPAQEIVAKDLHDTTWTFRHIYRGQPKRHLLTTGWSVFVSTKRLFAGDSVLFVRDEKSQLMLGIRRANRQTPTLSSSVISSDSMHIGILAAAAHANANSSPFTIFFNPRASPSEFVVPLAKYNKALYAQVSLGMRFRMMFETEDCGVRRYMGTVTGISDLDPVRWKGSQWRNLQVGWDESTAGDRPSRVSIWEIEPVITPFYICPPPFFRPKYPRQPGMPDDELDMENAFKRAMPWMGEDFGMKDAQSSMFPGLSLVQWMSMQQNNPLSGSATPQLPSALSSFNLPNNFASNDPSKLLNFQSPNLSSANSQFNKPNTVNHISQQMQAQPAMVKSQQQQQQQQQQHQHQQQQLQQQQQLQMSQQQVQQQGIYNNGTIAVANQVSCQSPNQPTGFSQSQLQQQSMLPTGAKMTHQNINSMGNKGLSQMTSFAQEMQFQQQLEMHNSSQLLRNQQEQSSLHSLQQNLSQNPQQLQMQQQSSKPSPSQQLQLQLLQKLQQQQQQQSIPPVSSSLQPQLSALQQTQSHQLQQLLSSQNQQPLAHGNNSFPASTFMQPPQIQVSPQQQGQMSNKNLVAAGRSHSGHTDGEAPSCSTSPSANNTGHDNVSPTNFLSRNQQQGQAASVSASDSVFERASNPVQELYTKTESRISQGMMNMKSAGEHFRFKSAVTDQIDVSTAGTTYCPDVVGPVQQQQTFPLPSFGFDGDCQSHHPRNNLAFPGNLEAVTSDPLYSQKDFQNLVPNYGNTPRDIETELSSAAISSQSFGIPSIPFKPGCSNEVGGINDSGIMNGGGLWPNQTQRMRTYTKVQKRGSVGRSIDVTRYSGYDELRHDLARMFGIEGQLEDPLTSDWKLVYTDHENDILLVGDDPWEEFVNCVQNIKILSSVEVQQMSLDGDLAAIPTTNQACSETDSGNAWKVHYEDTSAAASFNR

binding [3]: binds
B2: ARF19, split-YFP fusion for BiFC (protein, UniProt Q8RYC8 1-1086)
chain: B1 chain

binding [4]: no binding
binding [5]: binds
B3: ARF19, full-length, GAL4 yeast two-hybrid fusion (protein, UniProt Q8RYC8 1-1086)
chain: B1 chain
